According to article PMC3733129:
These are yes or no findings as the source states them, for the method shown. Binding can be weak; no strength is given.

Amino acid sequences for entries named in this document (tags omitted). A change or cut given only in a name is not applied to a line headed by its entry.
UniProt P49916: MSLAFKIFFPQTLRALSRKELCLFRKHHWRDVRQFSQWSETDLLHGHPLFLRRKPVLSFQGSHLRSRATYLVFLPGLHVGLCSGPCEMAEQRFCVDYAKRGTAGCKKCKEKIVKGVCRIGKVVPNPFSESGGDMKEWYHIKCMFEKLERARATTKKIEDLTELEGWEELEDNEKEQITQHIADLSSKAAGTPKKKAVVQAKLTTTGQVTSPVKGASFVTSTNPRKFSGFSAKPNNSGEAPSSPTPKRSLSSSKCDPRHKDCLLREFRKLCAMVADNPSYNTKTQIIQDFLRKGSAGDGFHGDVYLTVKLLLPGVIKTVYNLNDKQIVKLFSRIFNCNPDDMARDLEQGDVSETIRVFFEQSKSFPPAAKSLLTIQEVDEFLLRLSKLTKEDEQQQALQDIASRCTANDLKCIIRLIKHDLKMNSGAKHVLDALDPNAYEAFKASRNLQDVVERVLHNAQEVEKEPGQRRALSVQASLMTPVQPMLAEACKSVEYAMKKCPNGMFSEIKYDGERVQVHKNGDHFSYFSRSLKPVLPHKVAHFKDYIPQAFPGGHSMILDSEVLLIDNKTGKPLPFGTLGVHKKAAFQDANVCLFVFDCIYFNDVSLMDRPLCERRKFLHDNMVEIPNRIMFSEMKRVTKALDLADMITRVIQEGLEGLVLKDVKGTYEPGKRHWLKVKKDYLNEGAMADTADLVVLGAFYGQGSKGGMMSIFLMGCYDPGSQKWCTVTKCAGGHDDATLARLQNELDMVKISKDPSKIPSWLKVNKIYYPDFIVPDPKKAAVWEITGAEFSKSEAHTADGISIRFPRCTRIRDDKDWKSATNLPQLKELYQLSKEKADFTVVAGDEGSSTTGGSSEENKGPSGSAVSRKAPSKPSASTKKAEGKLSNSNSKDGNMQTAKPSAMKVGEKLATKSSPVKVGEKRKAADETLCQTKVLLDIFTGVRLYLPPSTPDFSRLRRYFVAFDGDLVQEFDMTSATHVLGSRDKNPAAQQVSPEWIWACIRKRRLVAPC

Target: Recombinant wild-type (WT) NEIL1 (human) (UniProt Q96FI4)
Experiment: far-Western, overlay or dot blot; WT NEIL1 and N311 (40 pmol) on nitrocellulose after 12% SDS-PAGE, denatured in situ with 6M guanidine-HCl and renatured; membrane incubated with Polβ, LigIIIα or XRCC1 (10 pmol/mL) in PBS, 0.5% nonfat dried milk, 0.05% Tween 20, 10 mM TMAO, 1 mM DTT for 3 h; immunoblotting; both purified

binding: binds
Substance: DNA ligase IIIα (LigIIIα), recombinant (from UniProt P49916) (enzyme)
